Experimental data as given in patent US20110301095A1.
No constants are given. Whether binding was seen depends on the method and setting. In cells and extracts the contact can be indirect. Some results given as binding are weak or reduced against the parent protein; the word gives no strength.

The chains behind the UniProt entries cited, without tags or fusion partners. Where a name states a change or a piece, a line headed by the entry shows the natural chain unless it says otherwise. A line that says so, or that is headed by a name, gives the form on record, which may keep a tag or linker.
UniProt Q09472: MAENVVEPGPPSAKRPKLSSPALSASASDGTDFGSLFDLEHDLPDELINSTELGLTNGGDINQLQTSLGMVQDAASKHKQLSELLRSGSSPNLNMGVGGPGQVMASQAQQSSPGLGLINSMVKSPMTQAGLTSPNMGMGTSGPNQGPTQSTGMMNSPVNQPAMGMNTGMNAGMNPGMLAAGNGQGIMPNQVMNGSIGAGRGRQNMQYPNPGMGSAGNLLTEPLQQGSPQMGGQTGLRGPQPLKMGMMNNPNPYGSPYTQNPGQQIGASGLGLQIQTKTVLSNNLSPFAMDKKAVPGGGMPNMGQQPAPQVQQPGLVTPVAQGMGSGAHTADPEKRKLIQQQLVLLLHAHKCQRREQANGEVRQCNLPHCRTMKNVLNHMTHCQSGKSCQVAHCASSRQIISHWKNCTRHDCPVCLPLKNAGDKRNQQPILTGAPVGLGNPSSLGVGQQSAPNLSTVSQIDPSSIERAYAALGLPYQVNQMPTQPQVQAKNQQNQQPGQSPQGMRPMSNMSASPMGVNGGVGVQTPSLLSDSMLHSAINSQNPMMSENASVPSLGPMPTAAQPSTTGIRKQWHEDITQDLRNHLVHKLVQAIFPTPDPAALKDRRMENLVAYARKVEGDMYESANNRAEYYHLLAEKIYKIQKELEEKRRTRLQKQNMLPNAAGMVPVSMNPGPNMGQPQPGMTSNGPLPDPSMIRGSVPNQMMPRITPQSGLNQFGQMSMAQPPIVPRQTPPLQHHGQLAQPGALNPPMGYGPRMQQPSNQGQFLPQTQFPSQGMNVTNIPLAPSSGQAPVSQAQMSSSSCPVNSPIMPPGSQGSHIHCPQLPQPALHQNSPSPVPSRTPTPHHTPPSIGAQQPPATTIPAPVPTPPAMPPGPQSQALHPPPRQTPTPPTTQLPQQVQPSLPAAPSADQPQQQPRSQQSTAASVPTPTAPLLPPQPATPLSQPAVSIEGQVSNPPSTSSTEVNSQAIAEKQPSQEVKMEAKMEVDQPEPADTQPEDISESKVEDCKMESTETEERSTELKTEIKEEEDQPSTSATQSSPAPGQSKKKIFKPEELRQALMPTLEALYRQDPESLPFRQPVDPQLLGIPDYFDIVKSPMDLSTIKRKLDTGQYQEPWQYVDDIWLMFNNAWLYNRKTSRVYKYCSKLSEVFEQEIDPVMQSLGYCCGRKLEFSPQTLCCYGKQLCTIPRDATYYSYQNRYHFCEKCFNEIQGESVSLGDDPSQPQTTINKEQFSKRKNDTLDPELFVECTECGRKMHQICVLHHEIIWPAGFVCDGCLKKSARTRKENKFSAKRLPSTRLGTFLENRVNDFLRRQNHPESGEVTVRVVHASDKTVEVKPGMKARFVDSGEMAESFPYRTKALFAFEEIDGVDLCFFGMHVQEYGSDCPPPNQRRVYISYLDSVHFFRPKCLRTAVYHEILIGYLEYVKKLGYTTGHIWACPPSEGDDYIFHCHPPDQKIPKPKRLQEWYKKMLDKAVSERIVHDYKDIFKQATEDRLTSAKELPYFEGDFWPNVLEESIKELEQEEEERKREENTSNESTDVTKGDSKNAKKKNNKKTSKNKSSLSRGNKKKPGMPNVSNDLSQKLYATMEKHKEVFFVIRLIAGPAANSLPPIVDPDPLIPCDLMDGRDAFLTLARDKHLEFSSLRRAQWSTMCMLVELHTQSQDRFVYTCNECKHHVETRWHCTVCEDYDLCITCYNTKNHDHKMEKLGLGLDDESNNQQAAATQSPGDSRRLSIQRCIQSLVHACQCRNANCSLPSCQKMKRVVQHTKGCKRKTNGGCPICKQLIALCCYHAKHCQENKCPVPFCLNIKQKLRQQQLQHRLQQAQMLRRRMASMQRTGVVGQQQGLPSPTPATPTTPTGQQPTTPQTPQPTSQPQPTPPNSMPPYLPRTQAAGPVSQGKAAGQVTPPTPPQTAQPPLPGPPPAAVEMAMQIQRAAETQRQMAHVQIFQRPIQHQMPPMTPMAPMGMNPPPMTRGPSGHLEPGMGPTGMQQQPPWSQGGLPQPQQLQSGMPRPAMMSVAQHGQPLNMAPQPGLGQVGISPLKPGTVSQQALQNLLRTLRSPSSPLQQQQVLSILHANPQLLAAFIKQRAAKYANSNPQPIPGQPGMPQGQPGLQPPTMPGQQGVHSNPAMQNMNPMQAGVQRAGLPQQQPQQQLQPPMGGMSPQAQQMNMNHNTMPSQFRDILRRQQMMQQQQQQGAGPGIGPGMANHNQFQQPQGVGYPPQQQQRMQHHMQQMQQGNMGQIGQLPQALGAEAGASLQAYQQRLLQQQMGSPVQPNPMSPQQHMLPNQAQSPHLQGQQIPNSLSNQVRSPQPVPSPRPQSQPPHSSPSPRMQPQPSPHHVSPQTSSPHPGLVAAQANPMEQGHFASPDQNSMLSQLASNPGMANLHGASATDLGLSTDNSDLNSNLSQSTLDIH
HIF-1α translated in vitro without tag (mouse HIF-1α in T vector) (Q61221, form named): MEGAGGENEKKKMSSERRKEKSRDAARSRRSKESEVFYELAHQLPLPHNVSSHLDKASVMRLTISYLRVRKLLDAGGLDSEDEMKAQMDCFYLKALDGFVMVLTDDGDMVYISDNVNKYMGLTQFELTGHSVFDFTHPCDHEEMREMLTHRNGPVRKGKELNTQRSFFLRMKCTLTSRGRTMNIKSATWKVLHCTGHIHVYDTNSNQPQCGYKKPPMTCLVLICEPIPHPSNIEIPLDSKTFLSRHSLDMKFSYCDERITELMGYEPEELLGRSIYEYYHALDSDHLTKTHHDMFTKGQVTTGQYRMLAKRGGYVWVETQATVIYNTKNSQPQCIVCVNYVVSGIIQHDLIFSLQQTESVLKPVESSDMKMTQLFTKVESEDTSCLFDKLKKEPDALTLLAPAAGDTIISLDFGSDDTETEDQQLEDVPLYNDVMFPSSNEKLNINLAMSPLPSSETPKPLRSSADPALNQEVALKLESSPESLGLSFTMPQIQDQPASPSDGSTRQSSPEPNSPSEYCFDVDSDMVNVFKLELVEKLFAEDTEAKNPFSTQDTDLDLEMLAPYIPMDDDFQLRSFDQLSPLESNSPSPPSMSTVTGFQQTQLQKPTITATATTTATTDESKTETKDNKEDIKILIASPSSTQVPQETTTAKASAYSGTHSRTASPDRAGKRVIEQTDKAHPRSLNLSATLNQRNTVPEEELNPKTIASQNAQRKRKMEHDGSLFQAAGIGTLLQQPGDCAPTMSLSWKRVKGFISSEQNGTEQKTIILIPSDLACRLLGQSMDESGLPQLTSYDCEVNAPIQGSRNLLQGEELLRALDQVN

Target: Flag-p300 (human) (UniProt Q09472)
Assay: in vitro pull-down of 35S-HIF-1α, with or without 35S-FoxA2, on M2 beads with Flag-p300 (FIG. 4K); binding increased by FoxA2

In the case of “HIF-1α translated in vitro without tag (mouse HIF-1α in T vector) (from UniProt Q61221 1-822)”, the binding is reported as “binds”.
